# Experimental data from patent US11154569B2, “Ruthenium μ-nitrido complexes and their use as calcium uptake inhibitors” (CORNELL UNIVERSITY, priority 2018, dated 2021).
# Some results were stated once for a whole list of compounds, not compound by compound. Some ranges recur; such a range may be that of the whole group of compounds.
# System: HeLa cells
# Assay: Mitochondrial accumulation of ruthenium in HeLa cells (mitochondrial isolation, GFAAS)
# Conditions: 50 μM, 24 hours
smiles,measurement,value
"N.N.N.N.N.N.N.N.[Cl-].[Cl-].[N-3].[Ru+4].[Ru+4] [C-2, [Ru2(μ-N)(NH3)8Cl2]Cl3]",uptake of ruthenium into the mitochondria compared to the rest of the cell,2-4 times
